Values from PubChem BioAssay AID1224828 (NIAID, 2016).
Shown is a random part of about 17,000 reagents tested. 762 of all reagents (4.5%) count as active. 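Active calls include both raised and lowered p65 entry, mostly lowered; wells with fewer than 50 cells lack a z-score.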 The raw values are shown without normalisation. No sequences are given here.

- Aim: 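Knock-downs that increase or decrease LPS-induced p65 nuclear translocation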 (primary screen)
- Cell system: mouse RAW264.7 G9 macrophage reporter cells (GFP-p65, Tnf promoter-mCherry)
- Reagent: siRNA pool against mouse genes, 100 nM
- Timing: 2 days siRNA transfection, then 40 min LPS before fixation
- Treatment: LPS (Salmonella minnesota R595) at 10 ng/ml
- Measured: 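Microscopy ratio of nuclear to perinuclear-ring GFP-p65 signal, scaled to the plate median; gene score is the average of two replicate robust z-scores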
- Scale: p65 translocation robust z-score: higher = more nuclear NF-kappaB p65 after LPS than the plate median; nuclear/cytoplasmic p65 ratio: higher = more nuclear NF-kappaB p65
- Rule for the call: 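Called active when z exceeds 3.3 or falls under -1.56 (median of Tlr4 controls), giving activity score of at least 50; no calls for control wells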
- Calls: active = hit (p65 shift raised or lowered); inactive = no clear change

Target gene	p65 translocation robust z-score	nuclear/cytoplasmic p65 ratio, rep 1	nuclear/cytoplasmic p65 ratio, rep 2	low cell count flag	call
Glyat	-0.35	1.61	1.51	enough cells to score	inactive
Coro1c	0.14	1.42	1.46	enough cells to score	inactive
Prr5l	0.19	1.43	1.26	enough cells to score	inactive
Itih2	-1.14	1.42	1.25	enough cells to score	inactive
Cndp1	0.61	1.69	1.88	enough cells to score	inactive
Mgst1	-0.9	1.23	1.31	enough cells to score	inactive
Cops4	1.79	1.89	2.02	enough cells to score	inactive
Tnfrsf13c	-1.76	1.06	1	enough cells to score	active
Fscn2	-0.7	1.31	1.32	enough cells to score	inactive
Cnot6		1.1	1.05	fewer than 50 cells per well; well left out of scoring	inactive
Ccng2	0.71	1.47	1.47	enough cells to score	inactive
Slc38a1		0.966	1.07	fewer than 50 cells per well; well left out of scoring	inactive
Rcbtb2	-0.21	1.4	1.39	enough cells to score	inactive
Set	-0.61	1.41	1.52	enough cells to score	inactive
Snx24		1.22	1.17	fewer than 50 cells per well; well left out of scoring	inactive
Or51h1		0.93	1.28	fewer than 50 cells per well; well left out of scoring	inactive
Pcnt	-0.03	1.44	1.2	enough cells to score	inactive
Dgcr6	1.37	1.7	1.52	enough cells to score	inactive
Rangap1	-1.18	1.42	1.29	enough cells to score	inactive
Phyhip	-0.67	1.32	1.17	enough cells to score	inactive
4833414E09Rik		1.41	1.55	fewer than 50 cells per well; well left out of scoring	inactive
Obox5	0.4	1.8	1.57	enough cells to score	inactive
Ms4a8a	1.19	1.6	1.56	enough cells to score	inactive
Ank	-0.13	1.59	1.61	enough cells to score	inactive

Targets listed so far whose gene name begins with S or s:
Target gene	p65 translocation robust z-score	nuclear/cytoplasmic p65 ratio, rep 1	nuclear/cytoplasmic p65 ratio, rep 2	low cell count flag	call
Slc38a1		0.966	1.07	fewer than 50 cells per well; well left out of scoring	inactive
Set	-0.61	1.41	1.52	enough cells to score	inactive
Snx24		1.22	1.17	fewer than 50 cells per well; well left out of scoring	inactive
